From patent US20230312646A1, “ANTIBACTERIAL PEPTIDES” (priority 2020, published 2023)
At least one peptide structure holds a part that was inferred or is arguable (an end, a ring closure or a residue). For at least one compound, name, drawing or mass did not settle the structure. Square brackets hold non-standard residues; d marks the D form. Peptide text beside a SMILES is read from it. ξ: configuration not given here. Phe(3,4-Cl2) = N[C@@H](Cc1ccc(Cl)c(Cl)c1)C(=O)O; Cha = N[C@@H](CC1CCCCC1)C(=O)O; NMeD = CN[C@@H](CC(=O)O)C(=O)O; ξOic = O=C(O)C1CC2CCCCC2N1

Test system: clamps from Acinetobacter baumannii (^AbSC)
Assay: ITC of peptides with A. baumannii clamp
Type: binding
Procedure: ITC experiments were performed using an iTC200 or a PEAQ-ITC instrument (Microcal Malvern Panalytical). Peptides (300 or 600 µM) were titrated at 25° C. by sequential injections (usually 2 µl each) into an SC solution (30 or 60 µM). Data were corrected for heat of injection by subtracting the signal of the titration of peptides into proteiN-free buffer solution (Hepes 10 mM pH 7.4, NaCl 0.15 M, EDTA 3 mM). Each titration was performed at least twice. Analyses of experimental data were performed following a classical treatment with the AFFINImeter software (https://www.affinimeter.com; S4S, Santiago de Compostela, Spain). In addition, kinetic information was obtained in some cases with kinITC as implemented in the software AFFINImeter.
Protein quality was assessed by DLS. The purification of clamps from other bacteria used the same procedure.
The bacterial sliding clamps present a highly conserved binding site among bacterial species. […] All these species belong to the ESKAPE group and are in the first priority bacteria list established by the World Health Organization for which new antibiotics are urgently needed.

SMILES	interaction with ^AbSC (in words)
CC(=O)N[C@@H](CCC(N)=O)C(=O)N[C@@H](CC1CCCCC1)C(=O)N(C)[C@@H](CC(=O)O)C(=O)N[C@@H](CC(C)C)C(=O)N[C@@H](Cc1ccc(Cl)c(Cl)c1)C(=O)O [P35] (Ac-Q[Cha][NMeD]L[Phe(3,4-Cl2)]-OH)	binds as efficiently
CC(=O)N[C@@H](CCC(N)=O)C(=O)N[C@@H](CC1CCCCC1)C(=O)N[C@@H](CC(=O)O)C(=O)N[C@@H](CC(C)C)C(=O)N1C(C(=O)N[C@@H](CC(C)C)C(=O)O)CC2CCCCC21 (stereo partly drawn) [P47] (Ac-Q[Cha]DL[ξOic]L-OH)	poorly
